Reference: paper PMC5566547, “Nei-like 1 (NEIL1) excises 5-carboxylcytosine directly and stimulates TDG-mediated 5-formyl and 5-carboxylcytosine excision”
These are yes or no findings as the source states them, for the method shown.

The chains behind the UniProt entries cited, without tags or fusion partners. Where a name states a change or a piece, a line headed by the entry shows the natural chain unless it says otherwise. A line that says so, or that is headed by a name, gives the form on record, which may keep a tag or linker.
UniProt Q96FI4: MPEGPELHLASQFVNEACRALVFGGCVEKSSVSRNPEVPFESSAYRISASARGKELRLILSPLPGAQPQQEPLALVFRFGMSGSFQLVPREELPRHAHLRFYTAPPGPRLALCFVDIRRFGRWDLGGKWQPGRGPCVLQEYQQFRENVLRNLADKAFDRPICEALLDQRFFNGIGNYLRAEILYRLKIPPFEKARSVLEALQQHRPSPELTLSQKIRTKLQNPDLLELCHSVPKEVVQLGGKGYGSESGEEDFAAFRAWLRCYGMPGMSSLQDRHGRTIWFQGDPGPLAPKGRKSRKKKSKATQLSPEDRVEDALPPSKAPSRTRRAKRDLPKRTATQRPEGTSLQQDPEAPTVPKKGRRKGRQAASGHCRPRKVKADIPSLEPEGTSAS
NEIL1 E3Q (human Nei-like 1, E3Q variant, C-terminal hexahistidine tag) (Q96FI4, form named): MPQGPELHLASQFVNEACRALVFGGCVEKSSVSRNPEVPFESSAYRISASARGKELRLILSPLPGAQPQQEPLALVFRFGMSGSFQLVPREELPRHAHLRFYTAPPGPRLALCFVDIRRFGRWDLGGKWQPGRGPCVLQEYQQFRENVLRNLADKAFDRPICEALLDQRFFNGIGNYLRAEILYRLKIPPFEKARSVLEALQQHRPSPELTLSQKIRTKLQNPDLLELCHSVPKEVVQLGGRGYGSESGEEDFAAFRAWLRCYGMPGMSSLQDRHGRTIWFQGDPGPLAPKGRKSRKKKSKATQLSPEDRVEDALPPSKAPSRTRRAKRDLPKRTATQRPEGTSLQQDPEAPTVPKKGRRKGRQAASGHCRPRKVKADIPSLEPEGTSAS

Target: NEIL1 E3Q (human Nei-like 1, E3Q variant, C-terminal hexahistidine tag) (human) (UniProt Q96FI4)
Assay: SEC; Superdex 200 10/300 GL; separate injections of NEIL1 E3Q or TDG alone (5nmoles in 0.5 ml); SEC buffer 70 mM MOPS pH7.5, 5% glycerol, 1 mM EDTA, 1 mM DTT, 100 mM KCl; column calibrated with mass standards; both purified

**Q.** How did the binding turn out when “NEIL1 E3Q (human Nei-like 1, E3Q variant, C-terminal hexahistidine tag) (from UniProt Q96FI4 1-390) (enzyme)” was run?
**A.** no binding (tested: 5nmoles in 0.5 ml total volume)
